Among the data in patent US5204341A, “1-arylsulphonyl-2-pyrrolidone derivatives, their preparation process and the new intermediates obtained, their use as medicaments and the pharmaceutical compositions containing them” (priority 1990, dated 1993) are IC50 values, retold here.

In this assay the test system is histamine-induced contractions of isolated ileum. Briefly: Antagonism of histamine-induced contractions of isolated guinea-pig ileum. The class given is cell-based. To be noted: Cavia porcellus, read-out: Antagonistic to Histam., IC50. The procedure: The interaction of the compounds with different receptors was evaluated on the isolated ileum of a guinea-pig according to the following method.
2.5-3 cm segments of the guinea-pigs, ileum were washed and immediately suspended in a bath containing 10 ml of a Tyrode solution at 37° C. and aerated with a mixture of oxygen (95%) and carbon dioxide (5%). After a stabilization period of at least 30 minutes, the contractions are recorded, maintaining the preparation under constant pressure of 1 g, using a sensor connected to a polygraph. […] The following dose was only added to the bath after the preparation returned to its base line. Arecoline was used as reference product. The antagonistic action was evaluated on contractions induced by acetylcholine (1×10^-6 M), histamine (1×10^-5 M) and barium chloride (2×10^-5 M). […] The contact time before adding the agonist was one minute.
For each compound the dose-response curves are obtained with 4 to 6 different concentrations and 3 to 5 independent tests. The agonistic activity is expressed by pD2 (negative logarithm of the dose which produces 50% of the maximum effect). The antagonistic activity is expressed by IC50 (concentration inhibiting 50% of the maximum response).

On to `CN(C)CCOC(c1ccccc1)c1ccccc1` [Diphenydramin, diphenydramine, reference compound], for which the IC50 (in general, the point on the concentration scale where inhibition reaches its midpoint) came to 830 nM.
